Experimental data published in publication PMC9600955.
These are yes or no findings as the source states them, for the method shown. Binding seen in cells or lysates may run through a third protein. A yes stands for co-enrichment or nearness to the bait. Other partners may have been found. No binding means not detected with the bait.

Assays:
[1] = biological target: VSV-G-tagged LapC1 (Streptococcus intermedius B196); experiment: affinity purification with mass spectrometry
[2] = biological target: VSV-G epitope tagged TelC (Streptococcus intermedius B196); experiment: affinity purification with mass spectrometry

B1: PepC (enzyme, UniProt T1ZEN3 1-445)
chain: MNSLDQQFTDKLYANYEANMKYAAIENAVSHNGLLTSLEKRNSAAENNPVFSIDLTKDKVSNQKASGRCWMFAALNTFRHKMIAGFQLEEFELSQAHTFFWDKYEKSNWFLEQVLATADQELTSRKVKFLLDTPQQDGGQWDMVVALFEKYGVVPKSVYPESISSSNSRELNQYLNKLLRQDAQILRDLVTSGADAAAAQEKKEELLQEIFNFLAMTLGLPPRTFDFAYRDKDNNFHGESGLTPQAFYKKYVDIKLDDYVSIINAPTADKPYGKSYTVEMLGNVVGARDVRYLNVDMNRLKELAIAQMQAGETVWFGSDVGQSSNRKAGVMVNNMYDFTSSMDIELTQDKAGRLDYSESLMTHAMVLTGVDLDENGKSTKWKVENSWGDKVGDKGYFVASDDWMDEYTYQIVIRKEFLTAEELAAYEAEPKVLAPWDPMGALASK
binding [1]: no binding
binding [2]: no binding
